Source: the supplement of paper PMC10849652
The other results are listed elsewhere or left out.

Chains of the proteins cited; added tags and fusions are not shown. Lines headed by an entry give the natural chain unless they say otherwise; changes in a name come on top.
UniProt Q8WXD5: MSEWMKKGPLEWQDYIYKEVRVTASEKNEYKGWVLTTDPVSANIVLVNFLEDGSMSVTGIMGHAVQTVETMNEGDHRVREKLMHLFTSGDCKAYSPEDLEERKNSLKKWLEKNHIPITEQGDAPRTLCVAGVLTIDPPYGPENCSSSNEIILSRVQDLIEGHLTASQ
UniProt Q86SR1: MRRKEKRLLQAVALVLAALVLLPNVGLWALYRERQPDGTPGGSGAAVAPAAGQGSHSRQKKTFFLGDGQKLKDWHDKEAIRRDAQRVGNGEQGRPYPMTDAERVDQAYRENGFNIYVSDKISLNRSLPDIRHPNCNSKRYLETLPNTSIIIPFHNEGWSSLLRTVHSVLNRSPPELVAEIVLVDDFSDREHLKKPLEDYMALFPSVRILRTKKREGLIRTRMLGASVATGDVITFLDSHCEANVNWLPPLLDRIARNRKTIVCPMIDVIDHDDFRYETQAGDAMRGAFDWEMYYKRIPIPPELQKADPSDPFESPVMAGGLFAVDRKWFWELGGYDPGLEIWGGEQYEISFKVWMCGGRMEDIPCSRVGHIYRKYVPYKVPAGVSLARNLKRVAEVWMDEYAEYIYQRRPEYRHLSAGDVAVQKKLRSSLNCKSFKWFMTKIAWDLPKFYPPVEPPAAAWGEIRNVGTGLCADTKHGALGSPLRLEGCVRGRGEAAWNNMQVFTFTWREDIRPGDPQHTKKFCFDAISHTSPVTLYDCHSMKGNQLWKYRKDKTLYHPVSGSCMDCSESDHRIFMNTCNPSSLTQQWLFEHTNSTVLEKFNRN
UniProt P85037: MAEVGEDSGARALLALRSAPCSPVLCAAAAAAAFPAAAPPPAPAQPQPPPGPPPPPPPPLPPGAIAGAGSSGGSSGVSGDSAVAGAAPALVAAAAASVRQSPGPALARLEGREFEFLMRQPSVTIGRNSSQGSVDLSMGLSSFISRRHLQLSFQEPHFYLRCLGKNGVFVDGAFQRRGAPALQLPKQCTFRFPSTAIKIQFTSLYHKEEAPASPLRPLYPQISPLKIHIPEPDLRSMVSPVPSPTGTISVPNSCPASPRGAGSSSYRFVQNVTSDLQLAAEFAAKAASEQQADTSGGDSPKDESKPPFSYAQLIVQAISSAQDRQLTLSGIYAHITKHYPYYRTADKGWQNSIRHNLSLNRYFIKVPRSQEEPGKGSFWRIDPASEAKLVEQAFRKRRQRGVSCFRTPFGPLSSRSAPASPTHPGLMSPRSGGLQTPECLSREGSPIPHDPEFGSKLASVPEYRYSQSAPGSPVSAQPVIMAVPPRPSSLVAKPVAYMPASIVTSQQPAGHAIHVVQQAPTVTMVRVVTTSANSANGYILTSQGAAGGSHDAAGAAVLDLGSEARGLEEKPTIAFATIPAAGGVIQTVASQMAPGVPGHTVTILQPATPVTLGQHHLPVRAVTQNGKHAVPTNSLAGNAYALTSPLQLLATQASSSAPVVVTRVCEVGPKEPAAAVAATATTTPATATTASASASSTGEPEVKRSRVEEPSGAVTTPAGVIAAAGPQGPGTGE
UniProt Q14C86: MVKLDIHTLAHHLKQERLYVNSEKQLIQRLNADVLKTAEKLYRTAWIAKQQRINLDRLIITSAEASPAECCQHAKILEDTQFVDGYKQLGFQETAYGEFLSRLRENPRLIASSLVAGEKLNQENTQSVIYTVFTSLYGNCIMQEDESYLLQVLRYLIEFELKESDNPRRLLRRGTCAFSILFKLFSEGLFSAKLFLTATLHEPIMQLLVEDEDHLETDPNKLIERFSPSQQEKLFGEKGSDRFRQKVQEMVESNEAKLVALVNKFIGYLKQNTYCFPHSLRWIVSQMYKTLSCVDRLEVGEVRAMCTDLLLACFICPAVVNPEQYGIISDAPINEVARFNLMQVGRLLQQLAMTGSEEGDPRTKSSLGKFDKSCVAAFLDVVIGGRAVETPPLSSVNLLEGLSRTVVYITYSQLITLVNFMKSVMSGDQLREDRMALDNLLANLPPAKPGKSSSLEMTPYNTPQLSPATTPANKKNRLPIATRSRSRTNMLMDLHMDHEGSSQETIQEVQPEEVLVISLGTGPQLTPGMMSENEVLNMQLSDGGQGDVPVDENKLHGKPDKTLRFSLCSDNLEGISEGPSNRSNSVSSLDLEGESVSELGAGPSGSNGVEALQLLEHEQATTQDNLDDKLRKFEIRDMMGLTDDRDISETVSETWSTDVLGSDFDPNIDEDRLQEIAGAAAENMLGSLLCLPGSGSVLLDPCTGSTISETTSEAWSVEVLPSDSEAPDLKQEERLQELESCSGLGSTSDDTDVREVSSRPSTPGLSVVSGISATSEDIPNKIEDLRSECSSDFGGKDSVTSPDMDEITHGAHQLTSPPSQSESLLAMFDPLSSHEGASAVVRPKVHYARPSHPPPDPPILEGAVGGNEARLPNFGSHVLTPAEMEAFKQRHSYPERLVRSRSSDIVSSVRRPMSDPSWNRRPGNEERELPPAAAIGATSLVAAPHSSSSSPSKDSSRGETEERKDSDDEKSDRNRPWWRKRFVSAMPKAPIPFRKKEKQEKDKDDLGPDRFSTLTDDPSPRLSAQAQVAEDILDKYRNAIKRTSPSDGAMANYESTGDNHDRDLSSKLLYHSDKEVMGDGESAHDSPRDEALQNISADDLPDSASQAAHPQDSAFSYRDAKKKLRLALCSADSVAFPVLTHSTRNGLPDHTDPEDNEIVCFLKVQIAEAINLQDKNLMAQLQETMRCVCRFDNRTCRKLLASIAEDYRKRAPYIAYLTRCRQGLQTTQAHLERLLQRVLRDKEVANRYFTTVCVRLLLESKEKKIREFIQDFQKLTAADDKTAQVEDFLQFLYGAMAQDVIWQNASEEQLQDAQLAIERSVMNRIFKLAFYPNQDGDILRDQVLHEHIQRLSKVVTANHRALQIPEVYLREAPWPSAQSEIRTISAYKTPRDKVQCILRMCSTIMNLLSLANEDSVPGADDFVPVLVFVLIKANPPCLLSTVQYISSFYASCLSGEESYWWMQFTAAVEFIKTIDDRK
UniProt P23434: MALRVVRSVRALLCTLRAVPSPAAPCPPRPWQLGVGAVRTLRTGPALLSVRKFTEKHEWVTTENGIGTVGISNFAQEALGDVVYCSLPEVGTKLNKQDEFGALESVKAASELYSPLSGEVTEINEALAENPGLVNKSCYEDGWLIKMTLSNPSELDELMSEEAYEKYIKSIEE
UniProt P48507: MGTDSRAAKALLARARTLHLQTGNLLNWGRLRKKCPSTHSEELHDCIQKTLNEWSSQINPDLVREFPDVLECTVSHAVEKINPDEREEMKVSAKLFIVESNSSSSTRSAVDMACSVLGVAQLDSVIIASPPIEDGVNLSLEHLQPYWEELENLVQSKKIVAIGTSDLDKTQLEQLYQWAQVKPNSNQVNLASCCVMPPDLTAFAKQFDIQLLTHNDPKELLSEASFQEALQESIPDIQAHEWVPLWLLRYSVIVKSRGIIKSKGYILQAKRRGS
UniProt P51570: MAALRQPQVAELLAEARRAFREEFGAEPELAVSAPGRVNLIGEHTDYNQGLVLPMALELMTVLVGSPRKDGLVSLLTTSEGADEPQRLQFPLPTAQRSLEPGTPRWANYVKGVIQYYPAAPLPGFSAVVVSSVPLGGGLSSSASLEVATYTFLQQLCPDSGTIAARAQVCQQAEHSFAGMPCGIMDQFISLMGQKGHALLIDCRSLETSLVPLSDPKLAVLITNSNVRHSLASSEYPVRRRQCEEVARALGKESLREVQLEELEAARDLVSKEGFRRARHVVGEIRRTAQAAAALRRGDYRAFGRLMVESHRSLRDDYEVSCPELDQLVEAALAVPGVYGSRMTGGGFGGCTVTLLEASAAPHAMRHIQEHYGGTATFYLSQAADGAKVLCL
UniProt Q8N9F7: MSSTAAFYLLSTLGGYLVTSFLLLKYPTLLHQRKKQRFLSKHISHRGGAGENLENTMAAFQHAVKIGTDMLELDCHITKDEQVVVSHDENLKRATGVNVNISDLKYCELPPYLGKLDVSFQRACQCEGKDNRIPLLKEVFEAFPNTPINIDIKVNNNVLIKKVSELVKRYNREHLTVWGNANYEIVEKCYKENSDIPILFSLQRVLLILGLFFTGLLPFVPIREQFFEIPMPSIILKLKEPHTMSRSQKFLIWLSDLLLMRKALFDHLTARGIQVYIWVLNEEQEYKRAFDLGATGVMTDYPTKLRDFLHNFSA
UniProt Q8NB37: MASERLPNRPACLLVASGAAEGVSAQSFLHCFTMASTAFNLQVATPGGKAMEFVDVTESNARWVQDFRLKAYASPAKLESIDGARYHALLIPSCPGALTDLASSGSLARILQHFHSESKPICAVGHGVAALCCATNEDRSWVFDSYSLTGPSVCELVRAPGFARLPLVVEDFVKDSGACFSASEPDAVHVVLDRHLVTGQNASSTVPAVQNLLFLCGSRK
UniProt Q8TEQ6: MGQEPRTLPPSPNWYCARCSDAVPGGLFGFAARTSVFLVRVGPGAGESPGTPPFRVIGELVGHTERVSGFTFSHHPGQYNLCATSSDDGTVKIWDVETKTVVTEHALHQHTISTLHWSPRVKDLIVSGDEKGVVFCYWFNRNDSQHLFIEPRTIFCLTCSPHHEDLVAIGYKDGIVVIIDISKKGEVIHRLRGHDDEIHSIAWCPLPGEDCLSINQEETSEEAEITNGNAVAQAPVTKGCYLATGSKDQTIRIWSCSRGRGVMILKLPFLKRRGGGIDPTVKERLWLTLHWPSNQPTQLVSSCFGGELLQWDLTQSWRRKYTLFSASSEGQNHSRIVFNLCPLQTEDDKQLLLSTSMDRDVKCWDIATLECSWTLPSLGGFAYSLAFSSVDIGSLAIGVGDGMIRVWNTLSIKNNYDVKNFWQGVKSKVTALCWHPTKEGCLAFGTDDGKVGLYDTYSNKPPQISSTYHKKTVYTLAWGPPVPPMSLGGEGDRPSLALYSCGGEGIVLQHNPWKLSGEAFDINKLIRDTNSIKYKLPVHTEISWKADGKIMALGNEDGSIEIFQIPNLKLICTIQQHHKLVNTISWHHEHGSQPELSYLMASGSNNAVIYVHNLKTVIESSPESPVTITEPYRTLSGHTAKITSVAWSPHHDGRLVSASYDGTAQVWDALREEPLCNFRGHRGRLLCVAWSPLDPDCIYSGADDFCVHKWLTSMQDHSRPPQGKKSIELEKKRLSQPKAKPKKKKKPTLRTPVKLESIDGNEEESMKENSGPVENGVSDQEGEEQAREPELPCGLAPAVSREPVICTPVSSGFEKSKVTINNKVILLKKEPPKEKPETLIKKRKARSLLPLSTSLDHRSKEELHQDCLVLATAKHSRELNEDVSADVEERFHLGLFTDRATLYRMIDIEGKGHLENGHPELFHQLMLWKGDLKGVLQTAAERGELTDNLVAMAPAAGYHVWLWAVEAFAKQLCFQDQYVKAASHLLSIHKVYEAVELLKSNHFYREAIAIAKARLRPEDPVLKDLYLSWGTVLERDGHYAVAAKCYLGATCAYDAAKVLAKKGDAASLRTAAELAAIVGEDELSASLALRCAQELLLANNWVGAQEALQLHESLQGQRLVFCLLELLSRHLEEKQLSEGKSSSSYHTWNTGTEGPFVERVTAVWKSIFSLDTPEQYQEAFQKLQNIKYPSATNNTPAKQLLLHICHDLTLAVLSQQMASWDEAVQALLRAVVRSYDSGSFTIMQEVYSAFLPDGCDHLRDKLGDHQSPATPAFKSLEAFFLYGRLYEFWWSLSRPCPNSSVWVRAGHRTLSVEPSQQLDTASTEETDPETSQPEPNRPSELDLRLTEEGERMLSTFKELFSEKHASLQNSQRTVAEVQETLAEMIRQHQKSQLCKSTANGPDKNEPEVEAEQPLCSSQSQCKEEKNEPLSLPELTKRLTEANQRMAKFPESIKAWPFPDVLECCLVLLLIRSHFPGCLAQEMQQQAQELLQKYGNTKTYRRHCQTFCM
UniProt Q96NB1: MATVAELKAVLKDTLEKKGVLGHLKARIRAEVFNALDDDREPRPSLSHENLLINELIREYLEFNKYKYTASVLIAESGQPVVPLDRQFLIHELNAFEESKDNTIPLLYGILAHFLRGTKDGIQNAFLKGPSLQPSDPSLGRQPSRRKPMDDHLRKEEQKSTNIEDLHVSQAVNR
UniProt P31150: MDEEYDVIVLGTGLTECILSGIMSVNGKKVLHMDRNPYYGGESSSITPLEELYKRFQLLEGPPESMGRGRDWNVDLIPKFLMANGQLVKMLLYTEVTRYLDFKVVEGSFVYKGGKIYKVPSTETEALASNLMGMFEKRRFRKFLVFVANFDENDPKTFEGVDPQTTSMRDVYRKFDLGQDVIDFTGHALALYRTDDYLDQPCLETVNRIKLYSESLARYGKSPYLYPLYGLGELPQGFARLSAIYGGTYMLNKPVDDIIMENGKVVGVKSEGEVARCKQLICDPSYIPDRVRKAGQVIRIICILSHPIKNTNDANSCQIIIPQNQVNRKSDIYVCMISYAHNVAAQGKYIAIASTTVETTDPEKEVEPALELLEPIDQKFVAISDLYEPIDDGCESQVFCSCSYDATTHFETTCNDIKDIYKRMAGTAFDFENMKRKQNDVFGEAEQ
UniProt P0CL80: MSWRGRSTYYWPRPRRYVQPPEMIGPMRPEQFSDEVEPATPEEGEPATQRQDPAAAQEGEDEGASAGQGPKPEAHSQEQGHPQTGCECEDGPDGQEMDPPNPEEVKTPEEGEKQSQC

compound: Cc1cccc(CC(=O)N2CCc3c2ccc(-c2cn(C)c4ncnc(N)c24)c3F)n1; assay: log2 fold change, soluble protein after heating vs DMSO (PISA); higher = thermal stabilisation; K562 cells, 10 uM, 30 min; active = over 0.2 and 3.5 SD of the protein, either way, in both replicates (recomputed)
Outline: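 K562 cells (2×10^6 cells/mL) were treated with 10 μM compound for 30 min, and aliquots were heated for 3 min over 48°C-58°C. Pooled aliquots were extracted in PBS with 0.5% NP-40 at 4°C, and the supernatant after 21,000xg for 90 min was measured by TMTpro 16plex LC-MS/MS with channel sums equalised. Reported thermal stability, relative to control samples and from duplicates, is a log2 fold change.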

Target	log2 fold change
GALNT11 (UniProt Q8NCW6)	inactive: -0.089
GEMIN6 (UniProt Q8WXD5)	inactive: -0.042
GALNT10 (UniProt Q86SR1)	inactive: -0.041
FOSL1 (UniProt P15407)	inactive: -0.299
GALNT4 (UniProt Q8N4A0)	inactive: -0.042
FNTB (UniProt P49356)	inactive: 0.015
FPGS (UniProt Q05932)	inactive: -0.014
GAB2 (UniProt Q9UQC2)	inactive: 0
FOXK1 (UniProt P85037)	inactive: 0.052
GAPVD1 isoform 6 (UniProt Q14C86)	inactive: 0.072
FUCA1 (UniProt P04066)	inactive: -0.001
GCSH (UniProt P23434)	inactive: 0.095
GCLM (UniProt P48507)	inactive: 0.072
GALK1 isoform 2 (UniProt P51570)	inactive: 0.062
GCDH (UniProt Q92947)	inactive: 0.007
GDPD1 (UniProt Q8N9F7)	inactive: -0.141
GEMIN2 (UniProt O14893)	inactive: -0.124

As a short view, part of the list above.
Target	log2 fold change
GAPVD1 isoform 6 (UniProt Q14C86)	inactive: 0.072
FUCA1 (UniProt P04066)	inactive: -0.001

More records

Target	log2 fold change
GABPA (UniProt Q06546)	inactive: 0.034
GARS1 (UniProt H7C443)	inactive: -0.316
GATD1 (UniProt Q8NB37)	inactive: -0.021
GHDC (UniProt Q8N2G8)	inactive: 0.018
GGT7 (UniProt Q9UJ14)	inactive: -0.038
GALC (UniProt P54803)	inactive: 0.084
GALNT1 (UniProt Q10472)	inactive: -0.065
GABARAPL1 isoform 2 (UniProt Q9H0R8)	inactive: 0.006
GEMIN5 (UniProt Q8TEQ6)	inactive: 0.065
FOPNL (UniProt Q96NB1)	inactive: -0.145
GDI1 (UniProt P31150)	inactive: 0.024
GALNT2 (UniProt Q10471)	inactive: 0.041
GCC2 (UniProt Q8IWJ2)	inactive: -0.045
GATA1 (UniProt P15976)	inactive: 0.007
GAGE12F (UniProt P0CL80)	active: -0.284
FUCA2 (UniProt Q9BTY2)	inactive: -0.022
GBF1 (UniProt Q92538)	inactive: 0.081
